Results as given in PubChem BioAssay AID2685 (National Center for Advancing Translational Sciences (NCATS), 2010).
The list shows a part of the results. Shown are side measurements of this screen, not its main read-out; they come without a call. The list favours compounds with an active or inconclusive main result. The note in brackets gives the kind of curve behind each potency; many fits are weak.

Assay: qHTS Assay for Lipid Storage Modulators in Drosophila S3 Cells;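 for cell number change: cells counted by Cell Tracker Red CMTPX staining in the red channel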
Settings: BODIPY lipid droplet fluorescence, 18-24 h; for cell number change: measured here: cell count max response, cells fed with added oleic acid
Outline: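 Drosophila S3 cells loaded with oleic acid (400 uM, as added) and compounds at several concentrations; lipid droplets imaged by 488-nm laser-scanning cytometry, 500–530 nm intensity and object ratio to cell channel. Percent activity normalized to 20 uM Triacsin C.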

[1] = measured here: lipid fluorescence (Fed channel) AC50, cells fed with added oleic acid
[2] = measured here: cell number channel AC50, cells fed with added oleic acid

SMILES	AC50 [1]	cell number change [%]	AC50 [2]
Cc1c(C(C)(C(=O)O)c2c(C)n(C)c3ccccc23)c2ccccc2n1C	1300 nM [rising, full curve, poor fit]	–	–
C=C(C)COc1ccc(-c2nc(N)ncc2Oc2ccccc2OCC)c(O)c1	3260 nM [rising, full curve]	85.3	4110 nM [rising, full curve]
CCOC(=O)N1CCN(C(=O)c2cccc(F)c2)CC1	4.61 nM [falling, full curve, poor fit]	2.81	–
CN1CCN(C(=O)c2ccc(NS(=O)(=O)c3cccc([N+](=O)[O-])c3)cc2)CC1	–	8.5	–
COc1ccc(/C=N/NC(=O)c2ccoc2C)cc1OC	16400 nM [rising, partial curve]	23.6	–
CC(C)CC(=O)O/N=C1\C(=O)N(Cc2ccc(Cl)cc2)c2ccc([N+](=O)[O-])cc21	23100 nM [falling, single point]	-69.5	20600 nM [falling, single point]
CC(C(=O)NCC1CCCO1)c1ccc([N+](=O)[O-])cc1 (configuration not stated)	–	-41.4	–
COc1cc(S(=O)(=O)N2CCCCC2)ccc1NC(=O)Cc1ccccc1	1640 nM [rising, partial curve]	42.4	206 nM [rising, full curve]
Cc1ccn2c(CNCc3cnn(C)c3)c(C(=O)N3CCCCCC3)nc2c1	29100 nM [falling, single point]	6.23	–
O=C(COC(=O)c1nc(Cl)ccc1Cl)Nc1ccc(Cl)cn1	6510 nM [falling, single point]	6.98	6510 nM [falling, single point]
COc1ccc(OCC#CCN2CC(C)OC(C)C2)cc1 (configuration not stated)	116 nM [falling, full curve, poor fit]	4.07	–
COc1ccc(-c2nn(C)c3sc(C(=O)N4CCOCC4)cc23)cc1OC	920 nM [rising, partial curve, poor fit]	12.8	5.8 nM [rising, full curve, poor fit]
O=C(OCc1ccccc1)Oc1cncc(C(=O)O)c1	29.1 nM [falling, full curve, poor fit]	-5.01	–
COc1ccc(OCC(=O)Nc2cccc(NC(=O)COc3ccc(OC)cc3)n2)cc1	5800 nM [rising, partial curve]	-17.3	–
O=C(CSc1nnnn1-c1ccccc1)Nc1ncc(Cc2cccc(Cl)c2Cl)s1	8200 nM [rising, partial curve]	6.91	–
O=[N+]([O-])c1ccc(S(=O)(=O)Nc2cccc(-c3ccc(N4CCOCC4)nn3)c2)cc1	820 nM [rising, partial curve]	40.9	9200 nM [rising, partial curve, poor fit]
O=C(Nc1ccc2ncccc2c1)c1ccccc1	–	15.8	–
COc1ccccc1NC(=O)CSc1nnc(C)n1Cc1ccccc1	820 nM [rising, full curve]	-5.16	–
COCCNC(=O)C(c1ccc(OC)cc1)N(CCOC)C(=O)CCC(=O)Nc1nccs1 (configuration not stated)	29100 nM [rising, single point]	18	–
Cc1cc(C)cc(NS(=O)(=O)c2cc(Br)cnc2N)c1	–	-61.1	16400 nM [falling, single point]

SMILES	AC50 [1]	cell number change [%]	AC50 [2]
COc1ccc(/C=C(\NC(=O)c2ccccc2)C(=O)NCCC(=O)O)cc1	1840 nM [falling, partial curve]	-45.5	14600 nM [falling, partial curve]
Nc1nonc1-n1nnc(C(=O)N/N=C/c2ccncc2)c1CSc1ccc(Cl)cc1	18400 nM [falling, single point]	–	–
CC1CC(c2ccccc2)n2nc(N3C(=O)c4ccccc4C3=O)nc2N1 (configuration not stated)	2910 nM [falling, full curve]	-28.7	1300 nM [falling, full curve, poor fit]
O=C(CCc1ccccc1)NCC(=O)N/N=C/c1ccc2c(c1)OCO2	9200 nM [rising, partial curve]	30.1	116 nM [rising, partial curve]
CCOC(=O)C1CCN(c2cc3c(cc2NC(=O)c2ccccc2Br)n(C)c(=O)n3C)CC1	29100 nM [falling, single point]	–	–
O=C(Nc1nc(-c2ccccc2)c(-c2ccccc2)s1)c1ccc(S(=O)(=O)N2CCCC2)cc1	29100 nM [falling, single point]	-13.5	–
Cc1csc2nc(CNC(=O)c3cccc(C(F)(F)F)c3)cn12	–	28.4	–
CC1CCCC(NC(=O)COC(=O)c2cccc(S(=O)(=O)N3CCCCC3)c2)C1C (configuration not stated)	5.17 nM [rising, full curve, poor fit]	1.82	–
COc1ccc(Cl)cc1-c1nc(-c2ccc(Br)o2)no1	–	-23.1	–
CCCc1cc(=O)oc2cc(C)cc(OCC(=O)Nc3ccc(CN4CCOCC4)cc3)c12	29100 nM [falling, single point]	-0.943	–
O=C(NCc1ccccc1)Nc1cccn(Cc2cccc(F)c2)c1=O	164 nM [rising, full curve, poor fit]	5.26	–
CC1CCN(S(=O)(=O)c2ccc(C(=O)N3CCCCC3C(=O)O)cc2)CC1 (configuration not stated)	25900 nM [falling, single point]	-33.8	25900 nM [falling, single point]
Cc1ccc2cccc(NC(=O)c3ccc(Br)o3)c2n1	2310 nM [rising, partial curve]	-17.4	–
CCOc1ccc(CC(=O)N2N=C(C)CC2(O)C(F)(F)F)cc1 (configuration not stated)	1460 nM [rising, partial curve, poor fit]	20.1	–
Cc1nc2ccc(Nc3nc4cc(S(=O)(=O)N5CCOCC5)ccc4o3)cc2s1	1300 nM [rising, full curve]	69.7	2310 nM [rising, partial curve, poor fit]
CN(C)S(=O)(=O)c1cccc(NC(=O)c2ccc3nccnc3c2)c1	4110 nM [rising, single point]	9.59	–
CCCCOc1ccc(-c2ncc(Cl)cn2)cc1	6510 nM [rising, single point]	-32.1	2910 nM [falling, partial curve]
Cc1ccn2cc(CNS(=O)(=O)c3cccs3)nc2c1	32600 nM [rising, single point]	12.5	–
COc1ccc(-c2cn3cccnc3n2)cc1	–	12.1	411 nM [falling, full curve, poor fit]
Cc1[nH]n(-c2ccccc2)c(=O)c1C(=O)Nc1ccccc1	820 nM [rising, full curve]	-2.25	–

Looked up one by one from the list above, 5 records:
SMILES	AC50 [1]	cell number change [%]	AC50 [2]
CCOc1ccc(CC(=O)N2N=C(C)CC2(O)C(F)(F)F)cc1 (configuration not stated)	1460 nM [rising, partial curve, poor fit]	20.1	–
Cc1csc2nc(CNC(=O)c3cccc(C(F)(F)F)c3)cn12	–	28.4	–
Nc1nonc1-n1nnc(C(=O)N/N=C/c2ccncc2)c1CSc1ccc(Cl)cc1	18400 nM [falling, single point]	–	–
CC1CCN(S(=O)(=O)c2ccc(C(=O)N3CCCCC3C(=O)O)cc2)CC1 (configuration not stated)	25900 nM [falling, single point]	-33.8	25900 nM [falling, single point]
CC1CC(c2ccccc2)n2nc(N3C(=O)c4ccccc4C3=O)nc2N1 (configuration not stated)	2910 nM [falling, full curve]	-28.7	1300 nM [falling, full curve, poor fit]

Following part.

SMILES	AC50 [1]	cell number change [%]	AC50 [2]
CC(=O)NC(=C(Cl)Cl)S(=O)(=O)c1ccccc1	–	-19.1	–
Nn1c(C2CCCCC2)nc2ccccc2c1=O	–	-17.5	–
Cc1c(NC(=O)c2ccccc2N)cccc1C(=O)O	5.17 nM [falling, full curve, poor fit]	1.61	–
CC(=O)C(Cc1ccc(Cl)nc1)(Cc1ccc(Cl)nc1)C(C)=O	920 nM [falling, full curve]	-24.9	820 nM [falling, single point]
CSCC[C@H](NC(=O)[C@H](Cc1ccccc1)n1c(=O)[nH]c2ccccc2c1=O)C(=O)N1CCC[C@H]1C(=O)O	–	32.4	116 nM [rising, full curve, poor fit]
COc1ccc(CCNC(=O)COc2ccc(-c3ccccc3)cc2)cc1OC	13000 nM [falling, partial curve]	-30.6	13000 nM [falling, single point]
CC(CNC(=O)CN1C(=O)CCSc2ccccc21)c1ccccc1 (configuration not stated)	6510 nM [rising, single point]	–	–
C=CCOc1ccccc1/C=N/O	4.61 nM [falling, full curve, poor fit]	19.9	–
COc1ccc(NC(=O)COC(=O)CO/N=C(\C)c2ccc3c(c2)OCO3)cc1S(N)(=O)=O	32600 nM [rising, single point]	-4.23	–
C=CCn1c(SCc2ccc(C(=O)Nc3ccccc3)cc2)nnc1-c1ccccc1	2910 nM [falling, full curve, poor fit]	-5.44	–
CC(C)(C)OC(=O)N[C@H](/C=C/c1ccccc1)C(=O)OC(C)(C)C	–	-11.1	–
Cc1nnc(SCC(=O)Nc2cccc(S(N)(=O)=O)c2)n1-c1ccccc1	–	10.3	5.17 nM [rising, full curve, poor fit]
CC(C)C[C@H](NC(=O)OC(C)(C)C)c1nnc(SCc2ccccc2)o1	29100 nM [rising, single point]	21.2	–
Cc1cccc(C(=O)NC(=S)Nc2ccc(S(=O)(=O)N3CCCCC3)cc2)c1	580 nM [rising, single point]	-27.2	–
CCCCN=C(NNc1ccc(Br)cc1)C(=O)OCC	14600 nM [falling, single point]	-27.9	–
O=C(Nc1cc(S(=O)(=O)N2CCOCC2)ccc1N1CCOCC1)c1cc2c(s1)CCC2	–	-9.93	–
CCCC1CC(C)(C(=O)CSc2n[nH]c(-c3ccccc3)n2)OC1=O (configuration not stated)	–	33	13000 nM [rising, partial curve]
COc1ccc(COC(=O)C2CCN(S(=O)(=O)c3ccc(Cl)cc3)CC2)cc1	–	14.1	–
Cn1c(=O)c(C(=O)NC2CCCCCCC2)c(O)c2ccccc21	92 nM [rising, full curve, poor fit]	–	–
